Results are given in words; binding and its absence hold for the method and conditions named. In cells and extracts the contact can be indirect. Some results given as binding are weak or reduced against the parent protein; the word gives no strength. Where a sequence is shown, tags or fusion partners need not be part of it.

In this assay the target is T1, Flag-tagged retinoic acid-inducible gene I (RIG-I) (UniProt O95786).
T1 sequence: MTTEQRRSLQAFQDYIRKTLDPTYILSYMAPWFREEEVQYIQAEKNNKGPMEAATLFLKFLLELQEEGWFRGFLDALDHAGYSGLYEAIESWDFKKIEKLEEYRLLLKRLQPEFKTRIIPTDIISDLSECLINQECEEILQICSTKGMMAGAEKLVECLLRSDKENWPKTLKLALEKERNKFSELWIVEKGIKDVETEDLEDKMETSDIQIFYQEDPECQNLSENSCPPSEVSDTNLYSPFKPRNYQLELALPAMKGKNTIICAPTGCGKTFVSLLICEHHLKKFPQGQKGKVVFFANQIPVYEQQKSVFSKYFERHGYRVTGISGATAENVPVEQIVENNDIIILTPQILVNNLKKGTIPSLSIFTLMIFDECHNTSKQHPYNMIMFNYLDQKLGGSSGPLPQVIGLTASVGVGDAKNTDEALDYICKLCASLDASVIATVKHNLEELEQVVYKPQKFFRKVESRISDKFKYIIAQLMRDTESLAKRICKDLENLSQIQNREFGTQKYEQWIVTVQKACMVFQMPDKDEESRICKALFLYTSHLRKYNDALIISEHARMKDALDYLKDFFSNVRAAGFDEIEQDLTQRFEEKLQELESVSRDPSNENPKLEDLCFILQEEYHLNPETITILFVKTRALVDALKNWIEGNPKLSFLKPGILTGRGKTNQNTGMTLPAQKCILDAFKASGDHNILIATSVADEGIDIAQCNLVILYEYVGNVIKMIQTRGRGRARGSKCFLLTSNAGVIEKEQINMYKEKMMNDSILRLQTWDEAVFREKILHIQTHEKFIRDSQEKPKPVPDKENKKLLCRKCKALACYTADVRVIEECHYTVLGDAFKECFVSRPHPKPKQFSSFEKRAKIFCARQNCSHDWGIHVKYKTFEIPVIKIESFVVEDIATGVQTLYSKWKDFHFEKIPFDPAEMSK
Description: co-IP; HEK-293T cells in 100-mm dishes co-transfected with RIG-I or TRAF6 vector (4 ug) and HA-USP25 (4 ug); lysis in 50 mM Tris-HCl pH 7.4, 150 mM NaCl, 1% NP40, 10% glycerin, 0.1% SDS, 2 mM Na2EDTA; antibodies and protein A+G agarose at 4 C; immunoblots with anti-HA and anti-Flag. In general terms: A western blot detects proteins with antibodies after separation by electrophoresis.

Regarding “HA-tagged ubiquitin-specific protease 25 (USP25), wild type (from UniProt Q9UHP3-2 1-1055) (enzyme)”, the binding result was “binds”.
